The other results are listed elsewhere or left out.
Assays:
Test in all cases: log2 fold change, soluble protein after heating vs DMSO (PISA); higher = thermal stabilisation; K562 lysate, 10 uM; active = over 0.2 and 3.5 SD of the protein, either way, in both replicates (recomputed)
lapatinib = compound: CS(=O)(=O)CCNCc1ccc(-c2ccc3ncnc(Nc4ccc(OCc5cccc(F)c5)c(Cl)c4)c3c2)o1 [lapatinib]
Method in brief: (§1)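 A 30 min treatment with 10 μM compound was applied to crude K562 extract at 1 mg/mL protein in PBS pH 7.4 with 1 mM MgCl2. Heating for 3 min spanned 48°C-58°C, after which aliquots were pooled, adjusted to 0.5% NP-40 at 4°C and spun at 21,000xg for 90 min. TMTpro 16plex LC-MS/MS of the supernatant, with channel sums equalised, gave values recorded as log-two fold change in thermal stability against solvent controls, from duplicates.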

The chains behind the UniProt entries cited, without tags or fusion partners. Where a name states a change or a piece, a line headed by the entry shows the natural chain unless it says otherwise.
UniProt Q86WR7: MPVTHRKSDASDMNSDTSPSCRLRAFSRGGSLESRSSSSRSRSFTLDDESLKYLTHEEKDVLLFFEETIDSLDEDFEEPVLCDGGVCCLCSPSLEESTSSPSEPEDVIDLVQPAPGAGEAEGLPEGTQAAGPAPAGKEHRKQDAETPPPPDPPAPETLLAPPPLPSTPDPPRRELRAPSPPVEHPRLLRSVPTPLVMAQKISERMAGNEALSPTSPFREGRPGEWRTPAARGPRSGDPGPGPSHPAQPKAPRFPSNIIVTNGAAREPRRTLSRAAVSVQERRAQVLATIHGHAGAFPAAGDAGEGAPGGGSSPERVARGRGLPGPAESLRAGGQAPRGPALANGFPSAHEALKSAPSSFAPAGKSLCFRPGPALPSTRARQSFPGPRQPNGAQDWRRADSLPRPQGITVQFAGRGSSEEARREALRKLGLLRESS
UniProt Q5H9R7: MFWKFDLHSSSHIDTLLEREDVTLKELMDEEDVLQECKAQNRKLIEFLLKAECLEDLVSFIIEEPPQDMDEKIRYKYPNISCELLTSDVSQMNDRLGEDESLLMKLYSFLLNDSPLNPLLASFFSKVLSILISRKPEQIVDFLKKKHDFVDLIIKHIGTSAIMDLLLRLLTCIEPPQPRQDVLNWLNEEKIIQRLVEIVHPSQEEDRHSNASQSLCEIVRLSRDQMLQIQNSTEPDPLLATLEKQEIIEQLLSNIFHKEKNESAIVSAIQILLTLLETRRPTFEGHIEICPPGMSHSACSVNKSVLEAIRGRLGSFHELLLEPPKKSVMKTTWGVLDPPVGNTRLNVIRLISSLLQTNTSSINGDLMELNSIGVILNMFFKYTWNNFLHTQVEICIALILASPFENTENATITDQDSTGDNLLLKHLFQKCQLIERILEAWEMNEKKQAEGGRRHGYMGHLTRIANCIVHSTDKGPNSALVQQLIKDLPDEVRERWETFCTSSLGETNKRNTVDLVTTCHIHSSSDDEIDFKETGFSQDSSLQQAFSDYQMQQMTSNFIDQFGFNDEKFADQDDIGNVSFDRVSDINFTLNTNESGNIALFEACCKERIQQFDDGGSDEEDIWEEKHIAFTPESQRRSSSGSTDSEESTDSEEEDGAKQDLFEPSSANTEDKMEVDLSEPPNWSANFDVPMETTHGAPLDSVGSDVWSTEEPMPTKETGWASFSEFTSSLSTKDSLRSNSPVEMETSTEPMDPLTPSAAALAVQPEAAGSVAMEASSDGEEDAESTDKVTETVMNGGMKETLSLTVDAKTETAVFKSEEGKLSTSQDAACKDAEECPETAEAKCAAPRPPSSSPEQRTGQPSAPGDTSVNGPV
UniProt Q15172: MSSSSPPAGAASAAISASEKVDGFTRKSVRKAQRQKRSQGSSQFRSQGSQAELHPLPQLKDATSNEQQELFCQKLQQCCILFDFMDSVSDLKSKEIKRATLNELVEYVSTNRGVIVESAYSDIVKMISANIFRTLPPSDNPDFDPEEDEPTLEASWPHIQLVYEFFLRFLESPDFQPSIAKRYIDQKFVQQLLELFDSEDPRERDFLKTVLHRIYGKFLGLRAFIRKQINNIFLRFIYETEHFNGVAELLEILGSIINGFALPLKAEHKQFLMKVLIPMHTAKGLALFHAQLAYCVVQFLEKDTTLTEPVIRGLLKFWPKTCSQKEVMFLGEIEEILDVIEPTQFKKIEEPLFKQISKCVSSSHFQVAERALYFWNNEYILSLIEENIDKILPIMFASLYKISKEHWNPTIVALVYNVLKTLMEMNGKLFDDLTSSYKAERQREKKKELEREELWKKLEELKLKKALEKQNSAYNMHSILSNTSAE
UniProt Q9BZL4: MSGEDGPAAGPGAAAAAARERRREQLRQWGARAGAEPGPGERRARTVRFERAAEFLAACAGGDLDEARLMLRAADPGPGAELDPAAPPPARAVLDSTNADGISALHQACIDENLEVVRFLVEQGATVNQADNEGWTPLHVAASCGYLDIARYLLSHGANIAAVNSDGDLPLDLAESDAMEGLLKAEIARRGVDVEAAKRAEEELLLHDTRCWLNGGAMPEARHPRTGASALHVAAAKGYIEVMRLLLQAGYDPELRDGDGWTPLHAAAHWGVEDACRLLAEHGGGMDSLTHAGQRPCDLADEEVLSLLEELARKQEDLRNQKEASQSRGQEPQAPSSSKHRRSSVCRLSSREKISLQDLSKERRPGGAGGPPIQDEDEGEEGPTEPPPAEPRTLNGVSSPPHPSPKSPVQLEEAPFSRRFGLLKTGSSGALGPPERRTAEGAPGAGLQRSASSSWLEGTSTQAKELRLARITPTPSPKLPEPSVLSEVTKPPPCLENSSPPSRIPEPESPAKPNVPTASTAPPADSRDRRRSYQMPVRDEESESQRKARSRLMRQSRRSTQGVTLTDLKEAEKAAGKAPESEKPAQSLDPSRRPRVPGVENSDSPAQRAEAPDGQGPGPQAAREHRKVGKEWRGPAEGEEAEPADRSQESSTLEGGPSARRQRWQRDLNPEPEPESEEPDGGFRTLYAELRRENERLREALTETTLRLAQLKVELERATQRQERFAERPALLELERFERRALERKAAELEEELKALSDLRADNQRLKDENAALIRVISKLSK
UniProt Q05655: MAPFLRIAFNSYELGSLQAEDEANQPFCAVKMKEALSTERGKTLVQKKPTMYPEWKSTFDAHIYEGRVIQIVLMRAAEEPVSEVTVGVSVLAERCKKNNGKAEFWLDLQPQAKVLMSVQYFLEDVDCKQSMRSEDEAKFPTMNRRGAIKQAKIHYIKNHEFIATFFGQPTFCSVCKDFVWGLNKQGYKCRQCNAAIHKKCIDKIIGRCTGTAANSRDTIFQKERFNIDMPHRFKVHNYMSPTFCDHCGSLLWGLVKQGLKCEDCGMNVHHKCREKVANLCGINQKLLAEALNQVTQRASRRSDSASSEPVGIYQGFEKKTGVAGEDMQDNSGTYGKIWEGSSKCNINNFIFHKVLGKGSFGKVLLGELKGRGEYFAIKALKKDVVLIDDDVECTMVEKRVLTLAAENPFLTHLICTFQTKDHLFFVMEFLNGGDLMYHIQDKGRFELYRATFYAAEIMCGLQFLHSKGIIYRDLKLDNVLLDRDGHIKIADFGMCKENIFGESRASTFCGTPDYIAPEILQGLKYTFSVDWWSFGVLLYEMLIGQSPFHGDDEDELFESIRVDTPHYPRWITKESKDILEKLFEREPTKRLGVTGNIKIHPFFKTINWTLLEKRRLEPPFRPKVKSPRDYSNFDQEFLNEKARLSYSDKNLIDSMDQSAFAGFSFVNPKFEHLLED
UniProt Q96LA8, whole entry, looked up: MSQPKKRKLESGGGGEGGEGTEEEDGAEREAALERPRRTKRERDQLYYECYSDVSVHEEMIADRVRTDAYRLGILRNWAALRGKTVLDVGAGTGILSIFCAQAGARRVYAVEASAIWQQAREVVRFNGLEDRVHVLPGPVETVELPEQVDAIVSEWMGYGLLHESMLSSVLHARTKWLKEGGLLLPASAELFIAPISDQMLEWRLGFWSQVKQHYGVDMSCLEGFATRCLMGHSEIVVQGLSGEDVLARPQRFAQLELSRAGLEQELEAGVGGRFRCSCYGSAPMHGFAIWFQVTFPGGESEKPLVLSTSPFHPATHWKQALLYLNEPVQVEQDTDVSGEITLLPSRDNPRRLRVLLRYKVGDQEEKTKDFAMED
UniProt P30044: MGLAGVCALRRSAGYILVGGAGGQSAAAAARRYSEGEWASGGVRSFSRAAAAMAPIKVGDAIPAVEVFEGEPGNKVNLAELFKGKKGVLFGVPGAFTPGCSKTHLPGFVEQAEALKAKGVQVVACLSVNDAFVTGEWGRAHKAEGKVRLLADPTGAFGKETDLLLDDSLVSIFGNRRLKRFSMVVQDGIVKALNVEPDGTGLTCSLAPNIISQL
UniProt Q96SB3: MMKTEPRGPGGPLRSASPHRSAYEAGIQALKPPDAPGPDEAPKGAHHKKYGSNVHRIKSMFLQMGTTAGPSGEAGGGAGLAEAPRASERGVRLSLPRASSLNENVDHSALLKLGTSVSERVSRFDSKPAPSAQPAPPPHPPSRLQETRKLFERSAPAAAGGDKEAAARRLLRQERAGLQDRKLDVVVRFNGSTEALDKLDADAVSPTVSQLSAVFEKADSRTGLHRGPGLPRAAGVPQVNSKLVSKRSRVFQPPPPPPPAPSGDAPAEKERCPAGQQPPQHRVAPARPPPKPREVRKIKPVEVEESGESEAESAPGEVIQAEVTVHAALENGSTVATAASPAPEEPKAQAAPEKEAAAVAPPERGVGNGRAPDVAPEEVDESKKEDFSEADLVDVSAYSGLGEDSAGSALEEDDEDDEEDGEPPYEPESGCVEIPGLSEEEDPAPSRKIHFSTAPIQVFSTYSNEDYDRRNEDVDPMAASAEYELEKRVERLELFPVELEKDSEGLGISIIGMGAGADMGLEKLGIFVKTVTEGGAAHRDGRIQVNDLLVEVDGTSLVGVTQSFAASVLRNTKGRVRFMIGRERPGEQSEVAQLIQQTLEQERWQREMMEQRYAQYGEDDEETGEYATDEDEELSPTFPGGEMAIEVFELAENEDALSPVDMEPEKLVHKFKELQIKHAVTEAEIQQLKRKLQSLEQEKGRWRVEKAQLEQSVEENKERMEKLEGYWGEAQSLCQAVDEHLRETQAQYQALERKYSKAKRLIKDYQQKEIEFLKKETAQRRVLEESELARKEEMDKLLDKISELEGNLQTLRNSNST
UniProt Q96BP3: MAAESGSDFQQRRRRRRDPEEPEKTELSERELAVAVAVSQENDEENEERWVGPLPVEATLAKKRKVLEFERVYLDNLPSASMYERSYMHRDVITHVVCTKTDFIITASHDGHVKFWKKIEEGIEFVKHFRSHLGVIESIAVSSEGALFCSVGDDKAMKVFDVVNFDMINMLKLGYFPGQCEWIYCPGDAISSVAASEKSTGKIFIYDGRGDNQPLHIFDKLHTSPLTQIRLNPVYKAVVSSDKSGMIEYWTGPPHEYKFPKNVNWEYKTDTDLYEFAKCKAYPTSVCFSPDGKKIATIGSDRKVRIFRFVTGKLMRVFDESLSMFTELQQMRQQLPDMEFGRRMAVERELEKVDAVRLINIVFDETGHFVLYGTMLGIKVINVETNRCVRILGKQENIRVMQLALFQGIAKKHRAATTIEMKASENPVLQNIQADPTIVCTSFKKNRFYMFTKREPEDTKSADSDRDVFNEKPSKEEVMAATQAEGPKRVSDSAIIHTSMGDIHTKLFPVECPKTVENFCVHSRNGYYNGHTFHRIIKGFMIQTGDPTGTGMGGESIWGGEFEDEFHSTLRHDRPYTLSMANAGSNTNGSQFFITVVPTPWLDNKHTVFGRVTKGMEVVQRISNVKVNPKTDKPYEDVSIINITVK
UniProt O75400: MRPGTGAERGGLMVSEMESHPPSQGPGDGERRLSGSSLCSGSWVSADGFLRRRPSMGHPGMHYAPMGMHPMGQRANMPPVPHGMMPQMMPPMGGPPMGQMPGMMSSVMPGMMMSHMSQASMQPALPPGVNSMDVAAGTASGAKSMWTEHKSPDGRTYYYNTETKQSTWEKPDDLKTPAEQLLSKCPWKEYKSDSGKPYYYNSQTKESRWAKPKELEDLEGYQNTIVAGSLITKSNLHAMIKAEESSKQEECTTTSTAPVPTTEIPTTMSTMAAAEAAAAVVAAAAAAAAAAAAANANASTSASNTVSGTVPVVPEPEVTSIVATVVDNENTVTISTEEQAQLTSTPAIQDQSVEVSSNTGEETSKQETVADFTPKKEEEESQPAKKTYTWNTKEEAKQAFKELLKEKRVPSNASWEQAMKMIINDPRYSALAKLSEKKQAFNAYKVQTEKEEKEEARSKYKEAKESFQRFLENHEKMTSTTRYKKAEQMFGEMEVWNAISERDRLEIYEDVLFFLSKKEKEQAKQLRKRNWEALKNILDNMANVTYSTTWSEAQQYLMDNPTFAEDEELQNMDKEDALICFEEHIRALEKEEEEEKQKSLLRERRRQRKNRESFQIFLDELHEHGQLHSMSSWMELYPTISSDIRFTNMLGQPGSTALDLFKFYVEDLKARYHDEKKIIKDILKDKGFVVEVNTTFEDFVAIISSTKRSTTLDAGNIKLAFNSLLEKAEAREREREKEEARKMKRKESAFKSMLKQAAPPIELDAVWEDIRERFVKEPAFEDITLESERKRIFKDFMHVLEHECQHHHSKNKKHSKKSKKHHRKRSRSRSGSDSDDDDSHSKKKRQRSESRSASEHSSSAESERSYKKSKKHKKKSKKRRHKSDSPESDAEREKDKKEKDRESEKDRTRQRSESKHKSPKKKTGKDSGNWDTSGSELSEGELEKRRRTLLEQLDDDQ
UniProt P62136, whole entry, looked up: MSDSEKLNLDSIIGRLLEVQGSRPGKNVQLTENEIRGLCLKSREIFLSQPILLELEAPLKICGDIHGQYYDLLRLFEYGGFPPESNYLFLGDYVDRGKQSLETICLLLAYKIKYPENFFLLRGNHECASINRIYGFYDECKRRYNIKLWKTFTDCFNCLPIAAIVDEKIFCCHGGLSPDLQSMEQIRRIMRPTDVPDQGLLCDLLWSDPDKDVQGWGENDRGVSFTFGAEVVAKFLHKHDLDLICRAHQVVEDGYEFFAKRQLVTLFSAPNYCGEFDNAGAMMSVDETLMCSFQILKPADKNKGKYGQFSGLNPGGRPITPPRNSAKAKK

pictilisib = compound: CS(=O)(=O)N1CCN(Cc2cc3nc(-c4cccc5[nH]ncc45)nc(N4CCOCC4)c3s2)CC1 [pictilisib]
Method in brief: as §1

crizotinib = compound: C[C@@H](Oc1cc(-c2cnn(C3CCNCC3)c2)cnc1N)c1c(Cl)ccc(F)c1Cl [crizotinib]
Method in brief: as §1

[1] = compound: C[C@H](C1=CC=C(C=C1)C(=O)NC2=C3C=CNC3=NC=C2)N
Method in brief: as §1

duvelisib = compound: C[C@H](Nc1ncnc2nc[nH]c12)c1cc2cccc(Cl)c2c(=O)n1-c1ccccc1 [duvelisib]
Method in brief: as §1

gandotinib = compound: Cc1cc(Nc2cc(CN3CCOCC3)c3nc(C)c(Cc4ccc(Cl)cc4F)n3n2)n[nH]1 [gandotinib]
Method in brief: as §1

tozasertib = compound: Cc1cc(Nc2cc(N3CCN(C)CC3)nc(Sc3ccc(NC(=O)C4CC4)cc3)n2)n[nH]1 [tozasertib]
Method in brief: as §1

doramapimod = compound: Cc1ccc(-n2nc(C(C)(C)C)cc2NC(=O)Nc2ccc(OCCN3CCOCC3)c3ccccc23)cc1 [doramapimod]
Method in brief: as §1

bafetinib = compound: Cc1ccc(NC(=O)c2ccc(CN3CC[C@H](N(C)C)C3)c(C(F)(F)F)c2)cc1Nc1nccc(-c2cncnc2)n1 [bafetinib]
Method in brief: as §1

[2] = compound: Cc1cccc(CC(=O)N2CCc3c2ccc(-c2cn(C)c4ncnc(N)c24)c3F)n1
Method in brief: as §1

nilotinib = compound: Cc1cn(-c2cc(NC(=O)c3ccc(C)c(Nc4nccc(-c5cccnc5)n4)c3)cc(C(F)(F)F)c2)cn1 [nilotinib]
Method in brief: as §1

[3] = compound: Cc1nc(Nc2n[nH]c3c2CN(C(=O)N[C@H](CN(C)C)c2ccccc2)C3(C)C)c2sccc2n1
Method in brief: as §1

dasatinib = compound: Cc1nc(Nc2ncc(C(=O)Nc3c(C)cccc3Cl)s2)cc(N2CCN(CCO)CC2)n1 [dasatinib]
Method in brief: as §1

[4] = compound: Cc1ncc(-c2ccnc(Nc3ccc(S(C)(=O)=O)cc3)n2)n1C(C)C
Method in brief: as §1

[5] = compound: Cn1cc(-c2ccc3c(c2)CCN3C(=O)Cc2cccc(C(F)(F)F)c2)c2c(N)ncnc21
Method in brief: as §1

quisinostat = compound: Cn1cc(CNCC2CCN(c3ncc(C(=O)NO)cn3)CC2)c2ccccc21 [quisinostat]
Method in brief: as §1

tipifarnib = compound: Cn1cncc1[C@@](N)(c1ccc(Cl)cc1)c1ccc2c(c1)c(-c1cccc(Cl)c1)cc(=O)n2C [tipifarnib]
Method in brief: as §1

[6] = compound: NC(=O)Nc1cc(-c2cccc(F)c2)sc1C(=O)N[C@H]1CCCNC1
Method in brief: as §1

[7] = compound: NC(=O)c1cnc(N[C@@H]2CCCC[C@@H]2N)nc1Nc1cccc(-n2nccn2)c1
Method in brief: as §1

[8] = compound: NC1(c2ccc(-c3nc4ccn5c(=O)[nH]nc5c4cc3-c3ccccc3)cc2)CCC1
Method in brief: as §1

Target	log2 fold change (lapatinib)	log2 fold change (pictilisib)	log2 fold change (crizotinib)	log2 fold change [1]	log2 fold change (duvelisib)	log2 fold change (gandotinib)	log2 fold change (tozasertib)	log2 fold change (doramapimod)	log2 fold change (bafetinib)	log2 fold change [2]	log2 fold change (nilotinib)	log2 fold change [3]	log2 fold change (dasatinib)	log2 fold change [4]	log2 fold change [5]	log2 fold change (quisinostat)	log2 fold change (tipifarnib)	log2 fold change [6]	log2 fold change [7]	log2 fold change [8]
PPP1R11 (UniProt O60927)	inactive: 0.01	inactive: -0.016	inactive: -0.069	inactive: 0.153	inactive: -0.054	inactive: -0.048	inactive: 0.022	inactive: -0.022	inactive: 0.099	inactive: -0.071	inactive: -0.03	inactive: 0.035	inactive: -0.051	inactive: 0.074	inactive: -0.055	inactive: -0.131	inactive: -0.001	inactive: 0.01	inactive: -0.067	inactive: 0.078
PROSER2 (UniProt Q86WR7)	inactive: -0.149	inactive: -0.009	inactive: -0.019	inactive: 0.054	inactive: -0.025	inactive: 0.173	inactive: -0.064	inactive: 0.057	inactive: 0.01	inactive: -0.027	inactive: 0.012	inactive: -0.041	inactive: 0.012	inactive: -0.093	inactive: 0.032	inactive: -0.043	inactive: -0.001	inactive: 0.026	inactive: 0.002	inactive: 0.032
PPP6R3 isoform 5 (UniProt Q5H9R7)	inactive: 0	inactive: -0.01	inactive: -0.012	inactive: -0.037	inactive: 0.028	inactive: 0.037	inactive: -0.002	inactive: 0.025	inactive: -0.027	inactive: 0.02	inactive: -0.015	inactive: 0.012	inactive: 0.015	inactive: 0.003	inactive: 0.011	inactive: -0.052	inactive: -0.011	inactive: -0.001	inactive: -0.006	inactive: -0.048
PPP3CA isoform 2 (UniProt Q08209)	inactive: -0.008	inactive: 0.085	inactive: 0.048	inactive: 0.075	inactive: 0.008	inactive: -0.099	inactive: -0.068	inactive: -0.006	inactive: -0.026	inactive: -0.091	active: 0.241	inactive: 0.121	inactive: 0.027	inactive: -0.082	inactive: -0.03	inactive: -0.051	inactive: 0.037	inactive: 0.048	inactive: -0.005	inactive: -0.002
PPP2R5A (UniProt Q15172)	inactive: -0.027	inactive: -0.022	inactive: -0.072	inactive: 0.07	inactive: -0.018	inactive: -0.211	inactive: 0.003	inactive: -0.012	inactive: -0.043	inactive: -0.051	inactive: -0.011	inactive: -0.036	inactive: -0.104	inactive: 0.04	inactive: 0.046	inactive: -0.042	inactive: 0.029	inactive: 0.028	inactive: 0.008	inactive: -0.008
PPP1R12C isoform 4 (UniProt Q9BZL4)	inactive: 0.045	inactive: 0.017	inactive: -0.047	inactive: -0.06	inactive: 0.014	inactive: 0.034	inactive: 0.008	inactive: -0.005	inactive: -0.001	inactive: 0.078	inactive: 0.001	inactive: -0.046	inactive: -0.007	inactive: -0.051	inactive: -0.01	inactive: -0.026	inactive: -0.027	inactive: -0.008	inactive: 0.041	inactive: -0.023
PRMT5 (UniProt O14744)	inactive: -0.029	inactive: -0.012	inactive: 0	inactive: -0.02	inactive: 0.158	inactive: 0.011	inactive: 0.017	inactive: -0.004	inactive: -0.021	inactive: -0.008	inactive: 0	inactive: 0.005	inactive: 0.094	inactive: -0.024	inactive: -0.028	inactive: -0.027	inactive: 0	inactive: 0.035	inactive: -0.015	inactive: -0.019
PRKCD (UniProt Q05655)	inactive: -0.143	inactive: 0.003	inactive: -0.011	inactive: -0.135	inactive: 0.024	inactive: 0.009	inactive: 0.015	inactive: 0.005	inactive: -0.069	inactive: 0.007	inactive: 0.002	inactive: 0.193	inactive: -0.053	inactive: 0.056	inactive: 0	inactive: 0.002	inactive: -0.013	inactive: -0.013	inactive: 0.218	inactive: 0.021
PRMT6 (UniProt Q96LA8)	inactive: 0.04	inactive: 0.004	inactive: -0.03	inactive: 0.05	inactive: 0.016	inactive: -0.069	inactive: -0.004	inactive: 0.003	inactive: -0.019	inactive: 0.028	inactive: -0.045	inactive: 0.025	inactive: 0.018	inactive: 0.002	inactive: 0.102	inactive: -0.028	inactive: 0.012	inactive: 0.051	inactive: 0.003	inactive: 0.021
PPP1R2 (UniProt P41236)	inactive: -0.039	inactive: 0.03	inactive: -0.006	inactive: -0.014	inactive: 0.069	inactive: 0.044	inactive: -0.033	inactive: -0.056	inactive: 0.015	inactive: -0.058	inactive: -0.013	inactive: -0.015	inactive: -0.016	inactive: -0.01	inactive: 0.093	inactive: -0.011	inactive: 0.047	inactive: 0.004	inactive: -0.011	inactive: 0.036
PRDX5 (UniProt P30044)	inactive: -0.023	inactive: 0.015	inactive: 0.011	inactive: 0.048	inactive: 0.009	inactive: 0.002	inactive: -0.029	inactive: 0.017	inactive: 0.045	inactive: -0.016	inactive: 0.005	inactive: 0.006	inactive: 0.006	inactive: 0.018	inactive: -0.002	inactive: 0.02	inactive: 0.022	inactive: -0.037	inactive: -0.012	inactive: 0.016
PPP1R9B (UniProt Q96SB3)	inactive: -0.013	inactive: -0.08	inactive: 0.029	inactive: 0.14	inactive: -0.025	inactive: -0.089	inactive: -0.048	inactive: 0.026	inactive: 0.002	inactive: -0.098	inactive: -0.054	inactive: 0.018	inactive: 0.033	inactive: -0.011	inactive: 0.053	inactive: 0.01	inactive: 0.017	inactive: -0.002	inactive: 0.002	inactive: 0.026
PPWD1 (UniProt Q96BP3)	inactive: -0.011	inactive: 0.002	inactive: -0.006	inactive: 0.007	inactive: -0.028	inactive: -0.03	inactive: 0.014	inactive: 0.006	inactive: -0.03	inactive: -0.015	inactive: -0.005	inactive: 0.01	inactive: -0.021	inactive: 0	inactive: 0.009	inactive: -0.03	inactive: 0.004	inactive: -0.009	inactive: -0.011	inactive: -0.008
PPP6R2 isoform 5 (UniProt O75170)	inactive: 0.003	inactive: -0.02	inactive: -0.028	inactive: -0.029	inactive: 0	inactive: 0.005	inactive: -0.041	inactive: -0.037	inactive: -0.039	inactive: 0.021	inactive: 0.025	inactive: -0.041	inactive: -0.027	inactive: 0.023	inactive: 0.006	inactive: -0.01	inactive: -0.003	inactive: 0.014	inactive: 0.023	inactive: -0.021
PRPF40A (UniProt O75400)	inactive: 0.003	inactive: 0.019	inactive: 0.072	inactive: 0.013	inactive: -0.015	inactive: 0.027	inactive: -0.003	inactive: 0.073	inactive: 0.046	inactive: -0.038	inactive: 0.013	inactive: -0.011	inactive: -0.026	inactive: -0.006	inactive: 0.019	inactive: 0	inactive: -0.001	inactive: 0.02	inactive: 0.005	inactive: 0.046
PPP1CA (UniProt P62136)	inactive: -0.017	inactive: -0.056	inactive: -0.007	inactive: -0.024	inactive: 0.017	inactive: 0.019	inactive: 0.07	inactive: 0.032	inactive: 0.003	inactive: 0.046	inactive: 0	inactive: -0.021	inactive: 0.004	inactive: 0.006	inactive: 0.02	inactive: -0.039	inactive: 0.015	inactive: -0.023	inactive: -0.003	inactive: 0.008

2 records drawn at random from the list so far, as already listed:
Target	log2 fold change (lapatinib)	log2 fold change (pictilisib)	log2 fold change (crizotinib)	log2 fold change [1]	log2 fold change (duvelisib)	log2 fold change (gandotinib)	log2 fold change (tozasertib)	log2 fold change (doramapimod)	log2 fold change (bafetinib)	log2 fold change [2]	log2 fold change (nilotinib)	log2 fold change [3]	log2 fold change (dasatinib)	log2 fold change [4]	log2 fold change [5]	log2 fold change (quisinostat)	log2 fold change (tipifarnib)	log2 fold change [6]	log2 fold change [7]	log2 fold change [8]
PPP1R12C isoform 4 (UniProt Q9BZL4)	inactive: 0.045	inactive: 0.017	inactive: -0.047	inactive: -0.06	inactive: 0.014	inactive: 0.034	inactive: 0.008	inactive: -0.005	inactive: -0.001	inactive: 0.078	inactive: 0.001	inactive: -0.046	inactive: -0.007	inactive: -0.051	inactive: -0.01	inactive: -0.026	inactive: -0.027	inactive: -0.008	inactive: 0.041	inactive: -0.023
PRMT5 (UniProt O14744)	inactive: -0.029	inactive: -0.012	inactive: 0	inactive: -0.02	inactive: 0.158	inactive: 0.011	inactive: 0.017	inactive: -0.004	inactive: -0.021	inactive: -0.008	inactive: 0	inactive: 0.005	inactive: 0.094	inactive: -0.024	inactive: -0.028	inactive: -0.027	inactive: 0	inactive: 0.035	inactive: -0.015	inactive: -0.019

Reference: the supplement of paper PMC10849652
